Reference: PubChem BioAssay (EPA / NIEHS)
Inconclusive results, whose numbers are uncertain, are shown with a selection of clear calls. Where the call is inconclusive, the potency comes from a doubtful curve fit. Active and inactive are the calls of the source. The calls were made as follows: active = hit-call score of the fitted dose curve at least 0.9, where 1 is the maximum; inconclusive = response in the unintended direction; inactive = score below 0.9.

Test system: SRY-box transcription factor 17 (SOX17) Protein Expression, Deisenroth Lab, SOX17 (gene 64321)
Assay: CCTE_Deisenroth_DEVTOX-GLR_Pluri_SOX17: CCTE's DevTox GLR-Pluri Assay Evaluation of SRY-box transcription factor 17 (SOX17) Protein Expression, Deisenroth Lab (AID 2284427)
Outline: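 RUES2-GLR human pluripotent cells were seeded 24 h, then differentiated 48 h in defined media with two chemical exposures 24 h apart (10-point series, 1 nM - 200 uM). Fixed, nuclear-stained cells were imaged; %SOX17+ cells minus 0.2% DMSO control reported.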

SMILES | AC50 | outcome
COC(=O)c1ccccc1C(=O)OC | inconclusive: 100 µM | 
NC(=O)c1ccc(N)nc1 |  | inactive
